# These are yes or no findings as the source states them, for the method shown. Binding seen in cells or lysates may run through a third protein. Some binding calls cover weakened binding; strength is not graded here.
# B1: mitochondrial antiviral signaling protein (MAVS), endogenous in RAW 264.7 cells (protein, UniProt Q8VCF0 1-503)
# chain: MTFAEDKTYKYIRDNHSKFCCVDVLEILPYLSCLTASDQDRLRASYRQIGNRDTLWGLFNNLQRRPGWVEVFIRALQICELPGLADQVTRVYQSYLPPGTSLRSLEPLQLPDFPAAVSGPSAFAPGHNIPDHGLRETPSCPKPVQDTQPPESPVENSEQLLQTNSGAVARMSGGSLIPSPNQQALSPQPSREHQEQEPELGGAHAANVASVPIATYGPVSPTVSFQPLPRTALRTNLLSGVTVSALSADTSLSSSSTGSAFAKGAGDQAKAATCFSTTLTNSVTTSSVPSPRLVPVKTMSSKLPLSSKSTAAMTSTVLTNTAPSKLPSNSVYAGTVPSRVPASVAKAPANTIPPERNSKQAKETPEGPATKVTTGGNQTGPNSSIRSLHSGPEMSKPGVLVSQLDEPFSACSVDLAISPSSSLVSEPNHGPEENEYSSFRIQVDESPSADLLGSPEPLATQQPQEEEEHCASSMPWAKWLGATSALLAVFLAVMLYRSRRLAQ
# Biological target: T1, viperin, endogenous in RAW 264.7 cells (mouse (endogenous in RAW 264.7)) (UniProt Q8CBB9)
# T1 sequence: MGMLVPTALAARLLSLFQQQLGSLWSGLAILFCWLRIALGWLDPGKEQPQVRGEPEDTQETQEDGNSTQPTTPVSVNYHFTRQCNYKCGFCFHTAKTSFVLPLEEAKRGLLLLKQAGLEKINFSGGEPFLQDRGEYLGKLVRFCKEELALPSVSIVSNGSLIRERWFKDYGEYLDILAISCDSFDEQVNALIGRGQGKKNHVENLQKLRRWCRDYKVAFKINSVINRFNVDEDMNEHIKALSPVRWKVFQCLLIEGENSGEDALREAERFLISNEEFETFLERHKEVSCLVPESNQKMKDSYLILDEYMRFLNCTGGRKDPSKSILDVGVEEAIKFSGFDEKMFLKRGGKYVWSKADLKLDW
# Experiment: co-IP; endogenous proteins of RAW 264.7 cells stimulated with IFN (10^3 units/ml) or transfected with poly(I:C) (1 μg/ml) for 8 h, or unstimulated; CHAPS lysates; anti-viperin or anti-MAVS beads; western blot
binder,measurement,value
B1,binding,binds

# From publication PMC5313200
